Values of other authors, collected in patent US11541237B2, “Methods for improving shoulder range of motion and functionality” (priority 2013, dated 2023).
At least one structure is not confirmed: it was looked up by name or label, or the drawing left a doubt.

Conditions: intranasally administered; cited from earlier work

## COC(=O)[C@H]1[C@@H](OC(=O)c2ccccc2)C[C@@H]2CC[C@H]1N2C [cocaine]
  duration of action: shorter than about one hour
